Results from PMC6053526.
No signal at the amounts used counts as a negative. For some of these results: At least one verdict rests on a figure or table, not on a statement of the authors. For some of these results: Weaker means in comparison with the reference protein, sequence or condition of that experiment. For some of these results: For at least one entry, the source does not settle the construct or the ends of the probe.

The chains behind the UniProt entries cited, without tags or fusion partners. Where a name states a change or a piece, a line headed by the entry shows the natural chain unless it says otherwise. Residues count along the entry.
UniProt Q93WU9: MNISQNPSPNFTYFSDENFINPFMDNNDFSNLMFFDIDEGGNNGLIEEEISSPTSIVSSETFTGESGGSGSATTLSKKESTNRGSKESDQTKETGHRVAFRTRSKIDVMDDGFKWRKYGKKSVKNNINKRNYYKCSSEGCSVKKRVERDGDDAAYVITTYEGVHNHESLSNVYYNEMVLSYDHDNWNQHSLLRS
UniProt Q8VWQ5, 86-173: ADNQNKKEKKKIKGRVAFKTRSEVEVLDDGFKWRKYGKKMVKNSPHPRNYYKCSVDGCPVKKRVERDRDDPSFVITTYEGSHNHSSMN

Key:
[1] = molecular target: GST-AtWRKY51-C (Arabidopsis thaliana) (UniProt Q93WU9); assay: EMSA; conditions: 5x buffer (3 uL in 14 uL): 20% glycerol, 5 mM MgCl2, 2.5 mM EDTA, 2.5 mM DTT, 250 mM NaCl, 50 mM Tris-HCl pH 7.5, 0.25 mg/ml poly(dI-dC); 0.5 ug protein; 10 min RT; recombinant protein; protein details: GST; label: 32P
[2] = molecular target: GST-AtWRKY50-C (Arabidopsis thaliana) (UniProt Q8VWQ5); assay: EMSA; conditions: 5x buffer (3 uL in 14 uL): 20% glycerol, 5 mM MgCl2, 2.5 mM EDTA, 2.5 mM DTT, 250 mM NaCl, 50 mM Tris-HCl pH 7.5, 0.25 mg/ml poly(dI-dC), 0.5 ug protein, 10 min RT, recombinant protein, residues 86-173, protein details: GST (N-term), label: 32P

Sequence	binding result [1]	binding result ([2]; almost abolished)	binding result [2]
GATGTGGCGGCATATATTCTTCAGGACTTTTC (double strand) [fragment D]	no binding		
GGGGATGTGGCGGCATATATTCTTCAGGACCCTTC / GGGGAAGGGTCCTGAAGAATATATGCCGCCACATC [Dm1]		binds more weakly	
GGTGATCTATTGACTGTTTCTCTACGTCACTA (double strand) [fragment A]	no binding		
TTTCTCTACGTCACTATTTTACTTACGTCATA (double strand) [fragment B]	no binding		no binding
TTTTACTTACGTCATAGATGTGGCGGCATATA (double strand) [fragment C]	no binding		no binding
